Test results reported in the supplement of paper PMC10849652.
Some of the results follow.

Sequences of proteins named here, by UniProt entry; tags and fusion partners are left off. A change or cut given only in a name is not applied to a line headed by its entry.
UniProt Q06203, whole entry, looked up: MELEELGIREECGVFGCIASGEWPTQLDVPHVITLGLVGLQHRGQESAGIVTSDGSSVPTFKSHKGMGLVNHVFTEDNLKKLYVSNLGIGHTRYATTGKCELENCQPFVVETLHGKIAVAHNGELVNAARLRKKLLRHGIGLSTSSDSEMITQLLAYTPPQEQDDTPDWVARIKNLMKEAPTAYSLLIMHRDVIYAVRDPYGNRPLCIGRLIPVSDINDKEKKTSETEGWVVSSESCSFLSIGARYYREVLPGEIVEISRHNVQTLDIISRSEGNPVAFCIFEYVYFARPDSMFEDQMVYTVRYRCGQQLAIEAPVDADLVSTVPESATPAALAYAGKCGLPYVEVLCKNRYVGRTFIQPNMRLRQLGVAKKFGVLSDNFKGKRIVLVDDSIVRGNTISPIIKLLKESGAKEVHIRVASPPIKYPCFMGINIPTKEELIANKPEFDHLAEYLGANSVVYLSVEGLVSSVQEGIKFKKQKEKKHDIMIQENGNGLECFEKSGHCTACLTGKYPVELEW
UniProt O95602, whole entry, looked up: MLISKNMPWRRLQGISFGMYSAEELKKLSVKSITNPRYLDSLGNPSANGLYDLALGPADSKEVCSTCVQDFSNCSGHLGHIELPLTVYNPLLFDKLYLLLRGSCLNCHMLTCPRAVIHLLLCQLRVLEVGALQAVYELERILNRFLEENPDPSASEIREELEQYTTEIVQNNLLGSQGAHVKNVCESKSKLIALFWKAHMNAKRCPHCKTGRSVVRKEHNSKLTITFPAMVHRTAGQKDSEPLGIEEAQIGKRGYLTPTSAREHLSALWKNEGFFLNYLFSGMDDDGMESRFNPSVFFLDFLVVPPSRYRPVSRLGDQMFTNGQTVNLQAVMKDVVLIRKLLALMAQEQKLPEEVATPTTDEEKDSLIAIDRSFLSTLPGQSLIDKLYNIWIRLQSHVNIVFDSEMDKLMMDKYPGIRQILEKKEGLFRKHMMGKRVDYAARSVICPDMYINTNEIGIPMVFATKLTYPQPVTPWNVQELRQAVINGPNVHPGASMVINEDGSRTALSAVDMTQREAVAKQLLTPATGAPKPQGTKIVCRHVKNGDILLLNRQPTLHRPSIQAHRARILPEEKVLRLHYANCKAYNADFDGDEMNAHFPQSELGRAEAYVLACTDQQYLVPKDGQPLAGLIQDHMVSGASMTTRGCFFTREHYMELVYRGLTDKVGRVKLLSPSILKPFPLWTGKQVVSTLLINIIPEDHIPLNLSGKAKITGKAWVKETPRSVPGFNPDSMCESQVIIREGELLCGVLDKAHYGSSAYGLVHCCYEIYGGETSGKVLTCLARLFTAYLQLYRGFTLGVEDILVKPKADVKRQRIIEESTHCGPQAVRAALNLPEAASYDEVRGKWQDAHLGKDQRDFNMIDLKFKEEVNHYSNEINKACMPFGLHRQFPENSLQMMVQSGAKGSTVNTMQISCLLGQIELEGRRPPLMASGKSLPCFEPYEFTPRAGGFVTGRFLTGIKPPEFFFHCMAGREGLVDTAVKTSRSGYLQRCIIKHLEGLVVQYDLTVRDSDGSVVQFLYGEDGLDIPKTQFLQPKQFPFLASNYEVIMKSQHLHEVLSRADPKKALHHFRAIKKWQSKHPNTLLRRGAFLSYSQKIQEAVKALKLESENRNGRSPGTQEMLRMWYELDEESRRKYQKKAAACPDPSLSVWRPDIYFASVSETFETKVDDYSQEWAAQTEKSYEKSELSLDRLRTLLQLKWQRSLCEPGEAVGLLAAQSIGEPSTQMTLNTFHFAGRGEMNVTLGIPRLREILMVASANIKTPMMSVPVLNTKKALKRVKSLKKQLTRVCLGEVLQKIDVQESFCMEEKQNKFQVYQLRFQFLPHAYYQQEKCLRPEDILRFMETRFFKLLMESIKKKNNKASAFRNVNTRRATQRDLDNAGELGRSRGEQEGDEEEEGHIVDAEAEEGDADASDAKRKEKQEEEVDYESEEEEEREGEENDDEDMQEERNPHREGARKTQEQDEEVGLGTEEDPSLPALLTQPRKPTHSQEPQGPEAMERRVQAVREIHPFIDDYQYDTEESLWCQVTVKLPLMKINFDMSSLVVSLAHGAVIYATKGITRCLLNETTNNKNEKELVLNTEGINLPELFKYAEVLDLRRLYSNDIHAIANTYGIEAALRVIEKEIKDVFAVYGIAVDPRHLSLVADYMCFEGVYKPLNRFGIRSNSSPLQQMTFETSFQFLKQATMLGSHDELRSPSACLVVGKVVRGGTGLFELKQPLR
UniProt Q15054: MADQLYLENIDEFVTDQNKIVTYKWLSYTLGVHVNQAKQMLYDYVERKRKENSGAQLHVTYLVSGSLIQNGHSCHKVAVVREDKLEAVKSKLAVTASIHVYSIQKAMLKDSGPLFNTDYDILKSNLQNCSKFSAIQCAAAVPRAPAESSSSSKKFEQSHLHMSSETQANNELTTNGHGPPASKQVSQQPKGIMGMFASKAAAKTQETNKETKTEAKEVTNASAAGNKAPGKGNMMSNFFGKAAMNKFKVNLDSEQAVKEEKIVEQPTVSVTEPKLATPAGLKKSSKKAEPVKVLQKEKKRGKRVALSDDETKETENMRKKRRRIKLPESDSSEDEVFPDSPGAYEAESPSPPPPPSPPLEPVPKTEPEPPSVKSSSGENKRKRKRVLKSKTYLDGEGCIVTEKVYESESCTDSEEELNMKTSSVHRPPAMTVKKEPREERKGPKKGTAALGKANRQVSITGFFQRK
UniProt Q8NBL1: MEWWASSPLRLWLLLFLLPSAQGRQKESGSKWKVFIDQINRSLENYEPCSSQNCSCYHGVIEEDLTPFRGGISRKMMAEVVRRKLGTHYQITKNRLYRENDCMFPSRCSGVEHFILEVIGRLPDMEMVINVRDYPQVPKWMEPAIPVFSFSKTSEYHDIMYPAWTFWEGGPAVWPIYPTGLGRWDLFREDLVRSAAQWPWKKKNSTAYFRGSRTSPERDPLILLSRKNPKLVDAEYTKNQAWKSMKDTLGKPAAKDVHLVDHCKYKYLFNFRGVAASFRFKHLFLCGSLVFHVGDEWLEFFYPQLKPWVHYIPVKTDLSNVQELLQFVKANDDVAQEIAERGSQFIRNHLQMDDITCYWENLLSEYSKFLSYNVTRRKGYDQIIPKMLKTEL
UniProt Q9BT43: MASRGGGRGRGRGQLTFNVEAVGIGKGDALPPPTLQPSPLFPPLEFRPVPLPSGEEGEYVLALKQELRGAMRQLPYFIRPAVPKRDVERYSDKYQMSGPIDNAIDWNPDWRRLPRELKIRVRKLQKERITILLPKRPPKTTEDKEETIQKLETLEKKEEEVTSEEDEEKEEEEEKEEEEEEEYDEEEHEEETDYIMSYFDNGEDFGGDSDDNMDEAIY
UniProt P0DPB6, whole entry, looked up: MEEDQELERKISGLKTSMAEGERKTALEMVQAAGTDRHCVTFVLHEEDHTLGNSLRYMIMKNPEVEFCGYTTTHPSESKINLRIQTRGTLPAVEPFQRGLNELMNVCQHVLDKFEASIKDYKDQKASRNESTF
UniProt Q14651: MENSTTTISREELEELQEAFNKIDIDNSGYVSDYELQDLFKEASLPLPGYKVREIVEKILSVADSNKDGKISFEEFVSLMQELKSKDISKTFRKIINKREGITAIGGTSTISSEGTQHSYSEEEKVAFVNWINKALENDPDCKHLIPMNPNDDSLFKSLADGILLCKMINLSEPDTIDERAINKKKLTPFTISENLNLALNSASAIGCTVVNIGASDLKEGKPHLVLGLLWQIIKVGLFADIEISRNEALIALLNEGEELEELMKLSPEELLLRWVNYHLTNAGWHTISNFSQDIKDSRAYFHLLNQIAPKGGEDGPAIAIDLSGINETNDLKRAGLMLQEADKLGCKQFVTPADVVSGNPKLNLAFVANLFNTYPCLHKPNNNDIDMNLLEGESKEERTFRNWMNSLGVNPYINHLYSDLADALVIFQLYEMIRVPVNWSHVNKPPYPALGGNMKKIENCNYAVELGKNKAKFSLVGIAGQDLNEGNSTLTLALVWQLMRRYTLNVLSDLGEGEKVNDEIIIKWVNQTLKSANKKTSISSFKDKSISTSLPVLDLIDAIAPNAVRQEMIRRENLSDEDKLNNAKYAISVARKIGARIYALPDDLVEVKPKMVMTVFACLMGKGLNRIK
UniProt Q9H2U2: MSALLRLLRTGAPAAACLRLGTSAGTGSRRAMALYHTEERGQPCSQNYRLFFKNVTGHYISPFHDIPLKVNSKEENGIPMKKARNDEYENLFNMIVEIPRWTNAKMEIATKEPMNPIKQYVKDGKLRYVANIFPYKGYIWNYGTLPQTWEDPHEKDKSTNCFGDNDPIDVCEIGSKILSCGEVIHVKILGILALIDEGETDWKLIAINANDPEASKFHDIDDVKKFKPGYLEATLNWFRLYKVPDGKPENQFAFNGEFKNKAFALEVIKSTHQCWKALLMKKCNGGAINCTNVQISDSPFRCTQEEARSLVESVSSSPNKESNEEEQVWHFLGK
UniProt O00411: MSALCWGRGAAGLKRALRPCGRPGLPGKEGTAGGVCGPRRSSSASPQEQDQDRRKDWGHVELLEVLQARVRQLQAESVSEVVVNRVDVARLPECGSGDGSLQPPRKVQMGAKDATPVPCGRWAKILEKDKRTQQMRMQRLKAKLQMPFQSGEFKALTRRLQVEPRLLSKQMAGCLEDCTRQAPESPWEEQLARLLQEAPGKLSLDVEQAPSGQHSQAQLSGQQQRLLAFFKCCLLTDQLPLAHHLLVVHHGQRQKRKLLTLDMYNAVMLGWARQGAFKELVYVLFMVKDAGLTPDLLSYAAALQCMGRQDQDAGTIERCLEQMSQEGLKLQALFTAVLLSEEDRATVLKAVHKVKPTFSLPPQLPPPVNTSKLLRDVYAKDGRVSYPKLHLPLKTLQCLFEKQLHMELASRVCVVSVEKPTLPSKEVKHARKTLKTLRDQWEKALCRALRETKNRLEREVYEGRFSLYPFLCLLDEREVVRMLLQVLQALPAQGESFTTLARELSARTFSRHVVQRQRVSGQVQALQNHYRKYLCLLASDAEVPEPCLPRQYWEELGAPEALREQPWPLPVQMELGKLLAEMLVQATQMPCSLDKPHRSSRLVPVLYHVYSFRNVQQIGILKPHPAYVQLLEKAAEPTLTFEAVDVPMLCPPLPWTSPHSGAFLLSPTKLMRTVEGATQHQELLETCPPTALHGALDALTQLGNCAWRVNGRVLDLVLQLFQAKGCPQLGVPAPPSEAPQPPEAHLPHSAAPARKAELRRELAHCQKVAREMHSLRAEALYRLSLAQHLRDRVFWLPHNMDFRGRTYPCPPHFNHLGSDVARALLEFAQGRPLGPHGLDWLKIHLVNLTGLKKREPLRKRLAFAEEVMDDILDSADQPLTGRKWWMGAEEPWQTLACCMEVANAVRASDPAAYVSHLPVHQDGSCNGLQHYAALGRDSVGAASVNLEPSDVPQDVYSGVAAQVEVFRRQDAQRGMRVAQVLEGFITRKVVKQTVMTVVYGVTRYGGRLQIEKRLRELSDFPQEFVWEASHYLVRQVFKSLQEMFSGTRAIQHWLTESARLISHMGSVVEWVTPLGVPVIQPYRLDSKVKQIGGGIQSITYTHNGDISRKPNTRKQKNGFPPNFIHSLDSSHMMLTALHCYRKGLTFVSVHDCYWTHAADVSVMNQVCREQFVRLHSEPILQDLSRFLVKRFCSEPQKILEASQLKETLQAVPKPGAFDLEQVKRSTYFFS
UniProt Q9UNP9: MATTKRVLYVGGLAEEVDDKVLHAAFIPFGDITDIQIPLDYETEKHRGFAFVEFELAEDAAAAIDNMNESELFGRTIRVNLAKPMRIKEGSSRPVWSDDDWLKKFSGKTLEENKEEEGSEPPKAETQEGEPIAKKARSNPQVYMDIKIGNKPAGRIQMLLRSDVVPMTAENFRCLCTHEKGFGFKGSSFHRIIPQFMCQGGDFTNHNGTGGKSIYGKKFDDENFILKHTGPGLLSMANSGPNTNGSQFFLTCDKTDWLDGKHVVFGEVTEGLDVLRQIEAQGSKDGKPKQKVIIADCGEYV

Key:
Test in all cases: log2 fold change, soluble protein after heating vs DMSO (PISA); higher = thermal stabilisation; K562 lysate, 10 uM; active = over 0.2 and 3.5 SD of the protein, either way, in both replicates (recomputed)
[1] = compound: CS(=O)(=O)CCNCc1ccc(-c2ccc3ncnc(Nc4ccc(OCc5cccc(F)c5)c(Cl)c4)c3c2)o1 [lapatinib]
Summary of the method: (§1)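 K562 pellets were dounce-homogenised in PBS pH 7.4 containing 1 mM MgCl2, and the crude extract, at 1 mg/mL protein, was exposed to 10 μM compound for 30 min. Aliquots were heated for 3 min across 48°C-58°C, pooled, brought to 0.5% NP-40 at 4°C and spun at 21,000xg for 90 min, with the supernatant taken as soluble protein. TMTpro 16plex LC-MS/MS with equalised channel sums quantified that protein. Values are log-two fold changes in thermal stability relative to solvent controls, taken from duplicates.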

[2] = compound: CS(=O)(=O)N1CCN(Cc2cc3nc(-c4cccc5[nH]ncc45)nc(N4CCOCC4)c3s2)CC1 [pictilisib]
Summary of the method: as §1

[3] = compound: C[C@@H](Oc1cc(-c2cnn(C3CCNCC3)c2)cnc1N)c1c(Cl)ccc(F)c1Cl [crizotinib]
Summary of the method: as §1

[4] = compound: C[C@H](C1=CC=C(C=C1)C(=O)NC2=C3C=CNC3=NC=C2)N
Summary of the method: as §1

[5] = compound: C[C@H](Nc1ncnc2nc[nH]c12)c1cc2cccc(Cl)c2c(=O)n1-c1ccccc1 [duvelisib]
Summary of the method: as §1

[6] = compound: Cc1cc(Nc2cc(CN3CCOCC3)c3nc(C)c(Cc4ccc(Cl)cc4F)n3n2)n[nH]1 [gandotinib]
Summary of the method: as §1

[7] = compound: Cc1cc(Nc2cc(N3CCN(C)CC3)nc(Sc3ccc(NC(=O)C4CC4)cc3)n2)n[nH]1 [tozasertib]
Summary of the method: as §1

[8] = compound: Cc1ccc(-n2nc(C(C)(C)C)cc2NC(=O)Nc2ccc(OCCN3CCOCC3)c3ccccc23)cc1 [doramapimod]
Summary of the method: as §1

[9] = compound: Cc1ccc(NC(=O)c2ccc(CN3CC[C@H](N(C)C)C3)c(C(F)(F)F)c2)cc1Nc1nccc(-c2cncnc2)n1 [bafetinib]
Summary of the method: as §1

[10] = compound: Cc1cccc(CC(=O)N2CCc3c2ccc(-c2cn(C)c4ncnc(N)c24)c3F)n1
Summary of the method: as §1

Measured: log2 fold change

PPAT (UniProt Q06203)
inactive: [1] 0.013 | [2] -0.01 | [3] 0.011 | [4] 0.138 | [5] -0.006 | [6] -0.055 | [7] 0.003 | [8] 0.002 | [9] 0.052 | [10] -0.116

POLR2L (UniProt P62875)
inactive: [1] 0.056 | [2] 0.081 | [3] -0.027 | [4] 0.117 | [5] -0.051 | [6] -0.105 | [7] -0.046 | [8] 0.037 | [9] -0.069 | [10] -0.028

POU2F1 isoform 6 (UniProt P14859)
inactive: [1] 0.014 | [2] 0.014 | [3] 0.035 | [4] 0.076 | [5] -0.018 | [6] -0.012 | [7] 0.013 | [8] -0.053 | [9] 0.011 | [10] -0.06

POLR2F (UniProt P61218)
active: [4] 1.12
inactive: [1] 0.036 | [2] -0.062 | [3] -0.024 | [5] -0.018 | [6] -0.166 | [7] 0.156 | [8] 0.025 | [9] -0.076 | [10] -0.189

POLD2 (UniProt P49005)
inactive: [1] 0.009 | [2] -0.03 | [3] -0.02 | [4] -0.093 | [5] 0.02 | [6] 0.008 | [7] 0.017 | [8] 0.013 | [9] -0.043 | [10] 0.049

POLR2G (UniProt P62487)
inactive: [1] -0.001 | [2] -0.048 | [3] 0.016 | [4] -0.04 | [5] 0.03 | [6] -0.002 | [7] -0.04 | [8] -0.011 | [9] 0.004 | [10] -0.006

POLR1A (UniProt O95602)
inactive: [1] -0.012 | [2] -0.078 | [3] -0.048 | [4] -0.018 | [5] 0.022 | [6] -0.021 | [7] -0.022 | [8] 0.028 | [9] -0.027 | [10] 0.036

POLD3 (UniProt Q15054)
inactive: [1] 0.03 | [2] -0.046 | [3] -0.056 | [4] 0.022 | [5] -0.033 | [6] -0.079 | [7] 0.021 | [8] 0.001 | [9] -0.031 | [10] -0.038

POFUT2 (UniProt Q9Y2G5)
inactive: [1] -0.015 | [2] 0.009 | [3] 0.026 | [4] 0.013 | [5] 0.012 | [6] 0.021 | [7] 0.03 | [8] -0.062 | [9] -0.017 | [10] 0.045

POGLUT1 (UniProt Q8NBL1)
inactive: [1] 0.01 | [2] -0.034 | [3] 0.049 | [4] -0.016 | [5] -0.041 | [6] -0.015 | [7] 0.078 | [8] -0.022 | [9] -0.01 | [10] 0.004

POLR3GL (UniProt Q9BT43)
inactive: [1] -0.045 | [2] -0.293 | [3] -0.096 | [4] 0.107 | [5] -0.04 | [6] -0.076 | [7] -0.061 | [8] 0.061 | [9] 0.168 | [10] -0.203

POLR1B isoform 3 (UniProt Q9H9Y6)
inactive: [1] -0.075 | [2] -0.037 | [3] 0.021 | [4] -0.107 | [5] 0.029 | [6] 0.013 | [7] 0.006 | [8] -0.018 | [9] -0.058 | [10] 0.041

POLA2 (UniProt Q14181)
inactive: [1] 0.008 | [2] -0.013 | [3] -0.023 | [4] 0.07 | [5] -0.018 | [6] -0.05 | [7] -0.006 | [8] 0.025 | [9] -0.009 | [10] -0.017

PMPCB (UniProt O75439)
inactive: [1] -0.026 | [2] -0.026 | [3] -0.017 | [4] -0.012 | [5] 0.006 | [6] -0.138 | [7] 0.048 | [8] -0.014 | [9] 0.081 | [10] 0

PNPT1 (UniProt Q8TCS8)
inactive: [1] -0.024 | [2] 0.024 | [3] -0.014 | [4] -0.012 | [5] 0.012 | [6] 0.012 | [7] 0.006 | [8] 0.02 | [9] -0.02 | [10] -0.002

POLR2M (UniProt Q6EEV4)
inactive: [1] 0.047 | [2] -0.07 | [3] -0.064 | [4] 0.026 | [5] -0.049 | [6] -0.154 | [7] 0.055 | [8] -0.041 | [9] -0.116 | [10] 0.046

POLR1D (UniProt P0DPB6)
inactive: [1] -0.001 | [2] -0.02 | [3] -0.06 | [4] -0.031 | [5] 0.025 | [6] -0.004 | [7] -0.063 | [8] -0.025 | [9] -0.082 | [10] -0.003

PLIN3 (UniProt O60664)
inactive: [1] 0.03 | [2] -0.023 | [3] 0.06 | [4] 0.018 | [5] 0.001 | [6] 0.019 | [7] 0.02 | [8] 0.001 | [9] 0.045 | [10] -0.101

PNPLA8 (UniProt Q9NP80)
inactive: [1] -0.038 | [2] -0.017 | [3] -0.175 | [4] 0.066 | [5] -0.037 | [6] 0.076 | [7] 0.071 | [8] 0.072 | [9] -0.155 | [10] 0.147

PNP (UniProt P00491)
inactive: [1] 0.018 | [2] 0.011 | [3] 0.042 | [4] -0.011 | [5] 0.012 | [6] 0.013 | [7] -0.031 | [8] 0.005 | [9] 0.068 | [10] -0.015

PLS1 (UniProt Q14651)
inactive: [1] 0.008 | [2] -0.005 | [3] -0.018 | [4] 0.02 | [5] 0.023 | [6] -0.023 | [7] -0.065 | [8] -0.045 | [9] -0.002 | [10] -0.017

POLG (UniProt P54098)
inactive: [1] 0.127 | [2] -0.016 | [3] -0.143 | [4] -0.156 | [5] 0.077 | [6] 0.169 | [7] 0.053 | [8] -0.137 | [9] 0.015 | [10] 0.253

PLOD1 (UniProt Q02809)
inactive: [1] -0.005 | [2] 0.017 | [3] -0.03 | [4] -0.043 | [5] -0.003 | [6] -0.004 | [7] 0.029 | [8] 0.015 | [9] -0.032 | [10] 0.03

PPA2 (UniProt Q9H2U2)
inactive: [1] -0.008 | [2] -0.006 | [3] 0.023 | [4] -0.025 | [5] -0.001 | [6] 0.009 | [7] -0.008 | [8] -0.024 | [9] 0.018 | [10] -0.005

POLRMT (UniProt O00411)
inactive: [1] -0.031 | [2] -0.136 | [3] -0.027 | [4] 0.017 | [5] -0.006 | [6] -0.157 | [7] 0.06 | [8] -0.04 | [9] -0.049 | [10] 0.09

PODXL2 (UniProt Q9NZ53)
inactive: [1] 0.167 | [2] -0.016 | [3] 0.034 | [4] -0.01 | [5] -0.138 | [6] -0.01 | [7] 0.055 | [8] -0.068 | [9] -0.022 | [10] 0.014

PNKD isoform 2 (UniProt Q8N490)
inactive: [1] -0.038 | [2] 0.012 | [3] 0.049 | [4] 0.037 | [5] 0.007 | [6] -0.039 | [7] -0.043 | [8] 0.03 | [9] -0.045 | [10] -0.05

PNKP (UniProt Q96T60)
inactive: [1] -0.031 | [2] -0.029 | [3] -0.025 | [4] -0.191 | [5] -0.047 | [6] 0.131 | [7] 0 | [8] 0.027 | [9] -0.103 | [10] 0.18

Six successive records from above, quoted:
POLA2 (UniProt Q14181)
inactive: [1] 0.008 | [2] -0.013 | [3] -0.023 | [4] 0.07 | [5] -0.018 | [6] -0.05 | [7] -0.006 | [8] 0.025 | [9] -0.009 | [10] -0.017

PMPCB (UniProt O75439)
inactive: [1] -0.026 | [2] -0.026 | [3] -0.017 | [4] -0.012 | [5] 0.006 | [6] -0.138 | [7] 0.048 | [8] -0.014 | [9] 0.081 | [10] 0

PNPT1 (UniProt Q8TCS8)
inactive: [1] -0.024 | [2] 0.024 | [3] -0.014 | [4] -0.012 | [5] 0.012 | [6] 0.012 | [7] 0.006 | [8] 0.02 | [9] -0.02 | [10] -0.002

POLR2M (UniProt Q6EEV4)
inactive: [1] 0.047 | [2] -0.07 | [3] -0.064 | [4] 0.026 | [5] -0.049 | [6] -0.154 | [7] 0.055 | [8] -0.041 | [9] -0.116 | [10] 0.046

POLR1D (UniProt P0DPB6)
inactive: [1] -0.001 | [2] -0.02 | [3] -0.06 | [4] -0.031 | [5] 0.025 | [6] -0.004 | [7] -0.063 | [8] -0.025 | [9] -0.082 | [10] -0.003

PLIN3 (UniProt O60664)
inactive: [1] 0.03 | [2] -0.023 | [3] 0.06 | [4] 0.018 | [5] 0.001 | [6] 0.019 | [7] 0.02 | [8] 0.001 | [9] 0.045 | [10] -0.101

(listing goes on)

PNPLA6 (UniProt Q8IY17)
inactive: [1] 0.088 | [2] -0.139 | [3] -0.198 | [4] -0.01 | [5] 0.042 | [6] 0.042 | [7] 0.025 | [8] 0.054 | [9] -0.089 | [10] 0.078

PPIE (UniProt Q9UNP9)
inactive: [1] 0.03 | [2] 0 | [3] -0.02 | [4] -0.234 | [5] 0.006 | [6] 0.144 | [7] 0.014 | [8] 0.062 | [9] 0.009 | [10] 0.102
